Results as given in patent US6939534B2, “Method to treat pulmonary hypoplasia in the newborn” (GenoMed, LLC, priority 2001, dated 2005).

Test: Radioreceptor assay (RRA) of EGF receptor-reactive material in acidified, heated amniotic fluid
Conditions: human amniotic fluid

epidermal growth factor [EGF]
EGF (by RRA; mean ± SEM) (21-25 weeks gestation, acidified and heated): 4.06 ± 2.43 ng/mL | EGF (by RRA; mean ± SEM) (26-30 weeks gestation, acidified and heated): 6.68 ± 2.09 ng/mL | EGF (by RRA; mean ± SEM) (31-35 weeks gestation, acidified and heated): 12.62 ± 3.69 ng/mL | EGF (by RRA; mean ± SEM) (36-40 weeks gestation, acidified and heated): 4.25 ± 0.49 ng/mL | EGF (by RRA; mean ± SEM) (<16 weeks gestation, acidified pH 1-2 and heated 100° C. 5 min): 6.5 ± 1.33 ng/mL
